The text below walks through data of paper doi:10.1101/750596.

Results are given in words; binding and its absence hold for the method and conditions named. In cells and extracts the contact can be indirect. These calls come from enrichment with a bait or labelling near it, and not all partners need be listed. A no says only that the protein was not detected with the bait.

B1: RNF212 (protein, UniProt F6TQD1 1-307)
chain: MASWVFCNRCFQSPHRKSSFSLTSCGHVYCHSCLLKGTKNECVICQAPCQTVLLSKHTNSNIQTFFLGIDGLCKKYSQETSQISEFQEKHRRRLVAFYQEKISQLEESLRKSVLQIKQLQSMRSSQQPAFNKIKNSVSTKPNGYLFLPPNSSLPDRIESMDIDLTPPARKPEMSAGPSRISVISPPQDGRMGSVTCRGPQHLSLTPSHASMTKASRVPPLQMPYKELSPPPASQLSSRATQGPSPSVSSSWTGPPRQPISISGLLQRQCAGSASPRGMDTEKMSPFLPSTPTNLRSVASPWHACVHR
B2: CDC34 (E2 conjugating enzyme) (enzyme, UniProt Q8CFI2 1-235)
chain: MARPLVPSSQKALLLELKGLQEEPVEGFRVTLVDEGDLYNWEVAIFGPPNTYYEGGYFKARLKFPIDYPYSPPAFRFLTKMWHPNIYETGDVCISILHPPVDDPQSGELPSERWNPTQNVRTILLSVISLLNEPNTFSPANVDASVMYRKWKESKGKDREYTDIIRKQVLGTKVDAERDGVKVPTTLAEYCVKTKAPAPDEGSDLFYDDYYEDGEVEEADSCFGDEEDDSGTEES
B3: MSH4 (protein, UniProt Q99MT2 1-958)
chain: MCCLFLRLRDYSTAHALSLPPCQRCGLQPWSARSHARRTLGVRKAGEMLRQEAASLSSSPRWTPSRRDAPCGRTLASASRPSTEGAMADRSSSSSSSPAPASAPGSSFGNKRSYAIHRAASSFPVGTSSSSARDTTYPHTFRTPLSAGNPQRSGHKSWTPQVGYSATSSAVSAHAPSVIVAVVEGRGLARGEIGMASIDLKSPQIMLSQFADNTTYAKVITKLQVLSPLEIIMSNTACVVGNSTKLFTLITENFKNVNFTTVQRKYFNETKGLEYIEQLCIAEFSSVLMEVQSRYYCLAAAAALLKYVEFIQNSVYAPKSLKIYFQGSEQTAMIDSSSAQNLELLVNNQDYRSNHTLFGVLNYTKTAGGSRRLRSNILEPLVDVETISMRLDCVQELLQDEELFFGLQSVISRFLDTEQLLSVLVQIPKQDTVNAAESKITNLIYLKHTLELVEPLKVTLKNCSTPLLRAYYGSLEDHRFGLILDKIKTVINDDARYMKGCLNMRTQKCYAVRSNISEFLDIARRTYTEIVDDIAGMIAQLAEKYSLPLRTSFSSSRGFFIQMTTDCAALSSDQLPSEFIKISKVKNSYSFTSADLIKMNERCQESLREIYHMTYMIVCKLLSEIYEHIHCLYKLSDTVSMLDMLLSFAHACTLSDYVRPEFTDTLAIKQGWHPILEKISAEKPVANNTYITEGSNVLIITGPNMSGKSTYLKQIALCQIMAQIGSYVPAEYASFRIAAQIFTRISTDDDIETNSSTFMKEMKEIAYILHNANDKSLILIDELGRGTNTEEGIGISYAVCEHLLSIKAFTLFTTHFLELCHLDALYLNVENMHFEVQHVKNTSRNKDAILYTYKLSRGLTEEKNYGLKAAEASSLPSSIVLDARDITTQITRQILQNQRSSPEMDRQRAVYHLATRLVQAARNSQLEPDRLRTYLSNLKKKYAGDFPRAVGLPEKTEE
B4: MSH5 (protein, UniProt Q9QUM7 1-833)
chain: MAFRATPGRTPPGPGPRSGIPSASFPSPQPPMAGPGGIEEEDEEEPAEIHLCVLWSSGYLGIAYYDTSDSTIHFMPDAPDHESLKLLQRVLDEINPQSVVTSAKQDEAMTRFLGKLASEEHREPKGPEIILLPSVDFGPEISKQRLLSGNYSFISDSMTATEKILFLSSIIPFDCVLTVRALGGLLKFLSRRRIGVELEDYDVGVPILGFKKFVLTHLVSIDQDTYSVLQIFKSESHPSVYKVASGLKEGLSLFGILNRCRCKWGQKLLRLWFTRPTRELRELNSRLDVIQFFLMPQNLDMAQMLHRLLSHIKNVPLILKRMKLSHTKVSDWQVLYKTVYSALGLRDACRSLPQSIQLFQDIAQEFSDDLHHIASLIGKVVDFEESLAENRFTVLPNIDPDIDAKKRRLIGLPSFLTEVAQKELENLDSRIPSCSVIYIPLIGFLLSIPRLPFMVEASDFEIEGLDFMFLSEDKLHYRSARTKELDTLLGDLHCEIRDQETLLMYQLQCQVLARASVLTRVLDLASRLDVLLALASAARDYGYSRPHYSPCIHGVRIRNGRHPLMELCARTFVPNSTDCGGDQGRVKVITGPNSSGKSIYLKQVGLITFMALVGSFVPAEEAEIGVIDAIFTRIHSCESISLGLSTFMIDLNQVAKAVNNATEHSLVLIDEFGKGTNSVDGLALLAAVLRHWLALGPSCPHVFVATNFLSLVQLQLLPQGPLVQYLTMETCEDGEDLVFFYQLCQGVASASHASHTAAQAGLPDPLIARGKEVSDLIRSGKPIKATNELLRRNQMENCQALVDKFLKLDLEDPTLDLDIFISQEVLPAAPTIL
B5: HEI10 (putative ubiquitin E3 ligase) (protein, UniProt D3Z3K2 1-276)
chain: MSLCEDMLLCNYRKCRIKLSGYAWVTACSHIFCDQHGSGEFSRSPAICPACNSTLSGKLDIVRTELSPSEEYKAMVLAGLRPEVVLDISSRALAFWTYQVHQERLYQEYNFSKAENHLKQMEKMYMQQIQSKNIELTSMKGEVISMKKVLEEYKKKFSDISEKLMERNRQYQKLQGLYDSLRLRNITIASQEGSLEPGMIPQSGVFGFPPGNNSKFSLDHIPVGNQGGGDEDVQFRPFFVCSPTAPEPINNFFSFASPSHEAEQQVCSRAFKAKRI

In the experiment the target is CNTD1^FH (C-terminally FLAG-HA tagged CNTD1 short form from the Cntd1^FH knock-in allele) (mouse (endogenous in testis)). In words: affinity purification with mass spectrometry.
Consider B1, for which the binding entry is “no binding”.
As to B2, the binding result is reported as “binds”.
On to B3, for which the binding result is “no binding”.
For the molecule B4, the binding result was “no binding”.
In the case of B5, the binding result is “no binding”.
